PubChem BioAssay AID504808 – Drosophila RNAi Screening Center | 2011
In all, the deposit lists about 21,000 reagents; below is an unselected part of those that have a named target and a result. Of all reagents, 18 (0.084%) were called active. 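Raw counts without plate normalisation, one of two replicates; the ratio scores behind the calls were not deposited.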 A plus sign joins genes that one reagent is predicted to hit. Not given: the amount of reagent, the time to read-out.

Assay: 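Genes whose loss lifts activity of an E2F-responsive reporter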 (primary screen)
Cells: Drosophila S2 cells
Reagent: long dsRNA against Drosophila genes
Measured: 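Dual luciferase plate measurements; E2F-specific signal taken as firefly over Renilla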
Direction: E2F firefly: higher = more E2F reporter activity; Renilla normaliser: higher = more normaliser reporter signal
Active means: 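a knock-down counted as active when the firefly/Renilla E2F signal rose above 50%, a threshold chosen arbitrarily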

Target gene,dsRNA,"E2F firefly, rep 1","Renilla normaliser, rep 1",Outcome
CG15312,DRSC18000,7998,676,inactive
v (vermilion),DRSC20383,7919,760,inactive
M7BP (Myosin-7a binding protein),DRSC05932,3248,171,inactive
LManI (Lysosomal alpha-mannosidase I),DRSC02838,1.46e5,5658,inactive
CG8195,DRSC07103,73213,3652,inactive
CG3397,DRSC15487,61459,3549,inactive
shrb (shrub),DRSC07061,2598,172,inactive
ovo,DRSC18050,8882,748,inactive
ovo,DRSC18812,1.05e5,5480,inactive
CG12986,DRSC19506,2.18e5,10659,inactive
Bsg (Basigin),DRSC01010,1.27e5,5047,inactive
Bsg (Basigin),DRSC01011,1.44e5,5503,inactive
Ctf4 (Chromosome transmission fidelity 4),DRSC06380,156,43,inactive
CG9263,DRSC03176,1.07e5,4404,inactive
CG14483,DRSC06455,1.29e5,4545,inactive
CG14877,DRSC15001,1.22e5,6753,inactive
Osi22 (Osiris 22),DRSC16442,1.20e5,6184,inactive
ncd (non-claret disjunctional),DRSC17012,1403,784,inactive
CG32182,DRSC09508,1.29e5,3978,inactive
Hsl (Hormone-sensitive lipase),DRSC06028,73455,3367,inactive
Acp76A (Accessory gland protein 76A),DRSC09665,1.33e5,5714,inactive
CG42306 + Gint3,DRSC06934,75639,3302,inactive
S (Star),DRSC00785,1.42e5,5812,inactive
mute (muscle wasted),DRSC06562,1.29e5,5043,inactive
CG6830,DRSC16124,1.54e5,6902,inactive
RpS8 (Ribosomal protein S8),DRSC16318,55421,6242,inactive
hts (hu li tai shao),DRSC07629,1.22e5,4947,inactive
Drat (Death resistor Adh domain containing target),DRSC06600,4044,141,inactive
rho-7 (rhomboid-7),DRSC07304,1.07e5,4394,inactive
Dph1 (Diphthamide biosynthesis 1),DRSC09851,63442,3014,inactive
CG3609,DRSC00620,1.57e5,5924,inactive
sr (stripe),DRSC13284,83247,2279,inactive
sr (stripe),DRSC17067,47410,4695,inactive
aay (astray),DRSC11320,70189,3339,inactive

Continued (4 carried over from the part before).
Target gene,dsRNA,"E2F firefly, rep 1","Renilla normaliser, rep 1",Outcome
CG3609,DRSC00620,1.57e5,5924,inactive
sr (stripe),DRSC13284,83247,2279,inactive
sr (stripe),DRSC17067,47410,4695,inactive
aay (astray),DRSC11320,70189,3339,inactive
RhoGEF4 (Rho guanine nucleotide exchange factor 4),DRSC11011,70250,3935,inactive
CG16826,DRSC02527,95117,3522,inactive
ham (hamlet),DRSC02070,1.05e5,3628,inactive
ham (hamlet),DRSC02512,96869,4065,inactive
ham (hamlet),DRSC02513,97526,3896,inactive
tHMG2 (testis-enriched HMG-box-containing protein 2),DRSC16182,1.04e5,5986,inactive
gol (goliath),DRSC04689,71095,3492,inactive
CG31560,DRSC12136,1.32e5,5838,inactive
topi (matotopetli),DRSC16431,1.25e5,6417,inactive
hiro (highroad),DRSC08564,90045,3437,inactive
phtf,DRSC05023,83292,3830,inactive
CkIIalpha-i3 (CKII-alpha subunit interactor-3),DRSC08651,79729,3361,inactive
CG4577,DRSC00658,1.57e5,6293,inactive
CG3071,DRSC18526,1923,952,inactive
trbl (tribbles),DRSC11901,1.42e5,5909,inactive
Sh3beta,DRSC11001,77704,3783,inactive
CG17618 (retired record) + CG45049,DRSC16163,1.19e5,5939,inactive
Rbp6 (RNA-binding protein 6),DRSC09462,1.40e5,4212,inactive
Rbp6 (RNA-binding protein 6),DRSC09464,1.57e5,4076,inactive
Rbp6 (RNA-binding protein 6),DRSC10072,1.65e5,8526,inactive
Rbp6 (RNA-binding protein 6),DRSC10073,1.54e5,8258,inactive
Rbp6 (RNA-binding protein 6),DRSC10662,1.34e5,7017,inactive
CG14252,DRSC14747,1.18e5,5570,inactive
